Data taken from patent US20260183437A1, “VHH ANTIBODY CONJUGATES WITH HETEROARYL CHELATORS” (ABDERA THERAPEUTICS INC., priority 2022, published 2026).

Test system: double stranded DNA
Assay: Polyreactivity ELISA
Type: binding
Conditions: 10 μg/mL VHH-Fc; signal normalized to non-coated well

B1: Gantenerumab: control antibody in the polyreactivity assay (antibody, chains of the INN, looked up, V domains shown)
VH: QVELVESGGGLVQPGGSLRLSCAASGFTFSSYAMSWVRQAPGKGLEWVSAINASGTRTYYADSVKGRFTISRDNSKNTLYLQMNSLRAEDTAVYYCARGKGNTHKPYGYVRYFDVWGQGTLVTVSS
VL: DIVLTQSPATLSLSPGERATLSCRASQSVSSSYLAWYQQKPGQAPRLLIYGASSRATGVPARFSGSGSGTDFTLTISSLEPEDFATYYCLQIYNMPITFGQGTKVEIK
  Polyreactivity Assay Score, dsDNA: >10
